PubChem BioAssay AID1259254 | NCATS – 2017
This is a random part of about 59,000 deposited reagents. In the full data, about 1,550 (2.6%) got an active call. 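G2 share is only a proxy for re-replication; each gene was hit by three separate siRNAs, and active genes were retested.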 The raw values are shown without normalisation. The numbers tell different reagents against one gene apart. Reagent sequences are not shown. The record does not give: the amount of reagent.

- Screen: 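Finding genes that stop cells copying their DNA twice in one cycle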 (primary screen)
- Cells: human HCT116 colorectal cancer cells
- Knock-down reagent: single siRNA against human genes
- Time to read-out: 3 days
- Detection: 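Imaged Hoechst DNA stain sorts each cell into a cycle phase by DNA amount; per plate, G2 fraction set to 0% for non-targeting and 100% for GMNN siRNA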
- Reading the numbers: G2 robust z-score and G2 cells, % of GMNN control: higher = more G2 cells, more excess DNA replication; raw share of cells in G2: higher = larger share of cells with G2 DNA content
- Rule for the call: 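An siRNA counts as active if its G2 robust z-score lies at least 5 MADs above the screen median; here such calls match roughly 38% of GMNN control or more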

Gene	reagent	G2 robust z-score	G2 cells, % of GMNN control	raw share of cells in G2 (%)	call
PPP3R2 (protein phosphatase 3 regulatory subunit B, beta)	1	1.34	12.4	8.83	inactive
PPP3R2 (protein phosphatase 3 regulatory subunit B, beta)	2	-0.368	0.378	4.42	inactive
PPP3R2 (protein phosphatase 3 regulatory subunit B, beta)	3	-0.364	0.41	3.62	inactive
PIGO (phosphatidylinositol glycan anchor biosynthesis class O)	1	-0.218	1.43	6.03	inactive
PIGO (phosphatidylinositol glycan anchor biosynthesis class O)	2	0.492	6.43	7.17	inactive
PIGO (phosphatidylinositol glycan anchor biosynthesis class O)	3	-1.05	-4.39	2.6	inactive
RPL37AP8 (ribosomal protein L37a pseudogene 8)	1	-0.646	-1.58	2.69	inactive
RPL37AP8 (ribosomal protein L37a pseudogene 8)	2	-0.544	-0.861	2.96	inactive
RPL37AP8 (ribosomal protein L37a pseudogene 8)	3	0.55	6.84	6.24	inactive
DEFB132 (defensin beta 132)	1	-0.777	-2.5	2.9	inactive
DEFB132 (defensin beta 132)	2	1.2	11.4	8.06	inactive
DEFB132 (defensin beta 132)	3	0.495	6.45	7.47	inactive
SLC26A8	1	-1.01	-4.1	3.2	inactive
SLC26A8	2	-0.338	0.588	5.94	inactive
SLC26A8	3	-0.652	-1.62	3.87	inactive
UGT3A1 (UDP glycosyltransferase family 3 member A1)	1	1.2	11.4	9.51	inactive
UGT3A1 (UDP glycosyltransferase family 3 member A1)	2	0.38	5.64	6.77	inactive
UGT3A1 (UDP glycosyltransferase family 3 member A1)	3	2.64	21.5	16.2	inactive
GALNTL5 (polypeptide N-acetylgalactosaminyltransferase like 5)	1	-0.414	0.0541	4.72	inactive
GALNTL5 (polypeptide N-acetylgalactosaminyltransferase like 5)	2	-0.325	0.684	6.28	inactive
GALNTL5 (polypeptide N-acetylgalactosaminyltransferase like 5)	3	-0.272	1.05	5.14	inactive
KXD1 (KxDL motif containing 1)	1	0.611	7.26	7.74	inactive
KXD1 (KxDL motif containing 1)	2	0.877	9.14	8.7	inactive
KXD1 (KxDL motif containing 1)	3	-0.885	-3.26	1.84	inactive
NTSR2 (neurotensin receptor 2)	1	0.293	5.03	7.64	inactive
NTSR2 (neurotensin receptor 2)	2	-0.28	1	4.87	inactive
NTSR2 (neurotensin receptor 2)	3	-0.456	-0.24	3.2	inactive
RPS12P22 (ribosomal protein S12 pseudogene 22)	1	5.22	39.7	18.2	active
RPS12P22 (ribosomal protein S12 pseudogene 22)	2	2.36	19.6	11.3	inactive
RPS12P22 (ribosomal protein S12 pseudogene 22)	3	4.41	34	18.9	inactive
NFYC (nuclear transcription factor Y subunit gamma)	1	-0.194	1.61	5.66	inactive
NFYC (nuclear transcription factor Y subunit gamma)	2	2.35	19.5	11.9	inactive
NFYC (nuclear transcription factor Y subunit gamma)	3	-0.582	-1.13	2.95	inactive
CASP6 (caspase 6)	1	0.488	6.4	7.79	inactive
CASP6 (caspase 6)	2	0.998	9.99	8.44	inactive
CASP6 (caspase 6)	3	0.211	4.45	5.57	inactive
TLN1 (talin 1)	1	9.26	68.1	30.1	active
TLN1 (talin 1)	2	6.88	51.4	22.1	active
TLN1 (talin 1)	3	3.67	28.8	15.6	inactive
MARCO (macrophage receptor with collagenous structure)	1	-0.636	-1.51	4.17	inactive
MARCO (macrophage receptor with collagenous structure)	2	-0.958	-3.77	3.94	inactive
MARCO (macrophage receptor with collagenous structure)	3	0.182	4.25	6.47	inactive
HBM (hemoglobin subunit mu)	1	-0.0387	2.69	6.71	inactive
HBM (hemoglobin subunit mu)	2	-0.949	-3.71	2.84	inactive
HBM (hemoglobin subunit mu)	3	2.35	19.5	12.1	inactive
ZNF696 (zinc finger protein 696)	1	-0.404	0.122	2.83	inactive
ZNF696 (zinc finger protein 696)	2	-0.771	-2.46	4.8	inactive
ZNF696 (zinc finger protein 696)	3	-0.809	-2.72	2.78	inactive

Reformatted: 2 of the entries above.
HBM (hemoglobin subunit mu) #3 | G2 robust z-score: 2.35; G2 cells, % of GMNN control: 19.5; raw share of cells in G2 (%): 12.1; call: inactive
ZNF696 (zinc finger protein 696) #1 | G2 robust z-score: -0.404; G2 cells, % of GMNN control: 0.122; raw share of cells in G2 (%): 2.83; call: inactive
